This experiment can be described thus: qHTS Assay for Modulators of Lamin A Splicing. Particulars: HeLa LMNA splicing GFP/RFP minigene ratio, 48 h. A digest of the protocol: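 Read-out is the ratio of GFP to DsRed2 object intensity, acquired by 488 nm laser-scanning cytometry on HeLa lamin A-EGFP minigene reporter cells. Compound incubation 48 hrs at 37 °C in Opti-MEM with 2% FBS; DMSO 0.5% final.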

Setting [1] is: measured here: RFP viability control channel.
Where [2] appears, read: measured here: GFP splicing reporter channel.

For 53 molecules, AC50 results are on record in PubChem BioAssay AID1487 (National Center for Advancing Translational Sciences (NCATS), 2009).

Structures are written as SMILES. Where “and” joins values, the source holds several entries; their conditions need not be identical. Identical values can stand only once. This is one part of the list. Further columns of the screen follow, without active or inactive calls. Most of these compounds were active or inconclusive in the main read-out, so they are no random draw. Potencies come from curve fits of mixed quality, noted in brackets.

`CSCc1ccc(C(=O)NCc2ccc(F)cc2)cc1`: the AC50 under setting [1] was 0.0224 µM [rising, full curve]. In the case of `Cc1ccc(SCCC(=O)N2CCC(C)CC2)cc1`, the AC50 was 35.5 µM [rising, single point] under setting [2] and 12.6 µM [rising, partial curve] under setting [1]. On to `Cc1cccc(N=Nc2ccc(O)c3ncccc23)c1`, for which the AC50 under setting [1] is 14.1 µM [rising, partial curve]. As to `Cn1c(=O)oc2cc(S(=O)(=O)N3CCCC(C(=O)NCC4COc5ccccc5O4)C3)ccc21` (configuration not stated), the concentration at half-maximal activity (AC50) under setting [1] is 35.5 µM [rising, single point].

As to `c1csc(-c2noc(COc3ccc4c(c3)CCCC4)n2)c1`, the AC50 under setting [1] was 31.6 µM [rising, single point]. `COc1cccc(C2C(C(=O)Nc3ccc(C)cc3C)=C(C)Nc3c(C(=O)Nc4cccc(C)c4)cnn32)c1OC` (configuration not stated): the AC50 under setting [2] is 0.00447 µM [rising, full curve, poor fit]. As for `Cc1nnc(NS(=O)(=O)c2ccc(N)cc2)s1`, the concentration at half-maximal activity (AC50) runs as follows: under setting [2], 0.000794 µM [falling, full curve, poor fit]; under setting [1], 4.47 µM [falling, full curve, poor fit]. Consider `CCOc1ccccc1NC(=S)N1CCC(NC(=O)NC23CC4CC(CC(C4)C2)C3)CC1`, for which the half-maximal activity concentration (AC50) was 15.8 µM [rising, single point] under setting [2] and 31.6 µM [rising, single point] under setting [1]. Turning to `CCCNC(=O)C1CCC(Cn2c(=O)c3sccc3n(CC(=O)N3CCC(C)CC3)c2=O)CC1` (configuration not stated), under setting [1], the AC50 is 0.0251 µM [falling, full curve, poor fit]. Still for that read-out and setting: then `CC(Sc1nc(-c2ccc(F)cc2)cs1)C(=O)N1c2ccccc2CC1C` (configuration not stated), with 22.4 µM [rising, single point]. `FC(F)Oc1ccc(NC(=S)NCc2nc3ccccc3[nH]2)cc1`: under setting [2], the half-maximal activity concentration (AC50) was 0.00891 µM [falling, full curve, poor fit]. As to `CCN1CCN(c2cc3c(cc2F)c(=O)c(C(=O)O)cn3C2CC2)CC1`, the AC50 under setting [1] was 708 nM [rising, full curve] and 8.91 µM [rising, partial curve]. With `CCOC(=O)CSC1=C(C#N)C(c2ccccc2OCC)C(C#N)C(=O)N1` (configuration not stated), the AC50 by setting is: under setting [2], 10 µM [rising, partial curve]; under setting [1], 10 µM [rising, partial curve]. For `CCN(CC)c1ccc(N=Cc2c(C)[nH]c3ccccc23)cc1`, the AC50 reads like this: under setting [2], 10 µM [rising, partial curve, poor fit]; under setting [1], 12.6 µM [rising, partial curve]. `C[n+]1ccccc1N1CCN(c2ccccc2Cl)CC1`: the AC50 is, setting by setting: under setting [2], 20 µM [rising, partial curve, poor fit]; under setting [1], 22.4 µM [rising, partial curve].

Take `COc1cccc(/C=N/NC(=O)CSc2ccccc2C)c1O`: the half-maximal activity concentration (AC50) under setting [2] is 35.5 µM [rising, single point] and the AC50 under setting [1] is 28.2 µM [rising, single point]. Take `CN(CC(=O)Nc1cccc(C(F)(F)F)c1)S(=O)(=O)c1ccc2[nH]c3c(c2c1)CCCC3`: the AC50 under setting [2] is 6.31 µM [falling, partial curve, poor fit]. Turning to `COc1ccc(Cl)cc1NC(=O)CSc1nccn1Cc1ccco1`, the AC50 under setting [2] was 11.2 µM [rising, partial curve].

Turning to `CC(=O)Nc1cccc(C(=O)/C=C/c2ccc(/C=C/C(=O)c3cccc(NC(C)=O)c3)cc2)c1`, the AC50 was 35.5 µM [falling, single point] under setting [2] and 35.5 µM [falling, single point] under setting [1]. Regarding `CCN(CC)S(=O)(=O)c1cc(NC(=O)C(C)OC(=O)c2[nH]c(C)c(C(C)=O)c2C)ccc1C` (configuration not stated), the AC50 under setting [1] was 11.2 µM [rising, single point]. Same read-out and setting: with `CC(C)Oc1cccc(C(=O)NC(=S)Nc2ccc3c4c(cccc24)CC3)c1` the figure was 14.1 µM [rising, single point]. Consider `O=C1NC(=Nc2cccc(Cl)c2)SC1Cc1cccc(Cl)c1Cl` (configuration not stated), for which the half-maximal activity concentration (AC50) under setting [2] is 22.4 µM [falling, single point] and the AC50 under setting [1] is 25.1 µM [falling, single point]. Consider `O=C(CN(CCCN1CCOCC1)C(=O)Cn1nnc(-c2ccc(F)cc2)n1)NC1CCCCC1`, for which the AC50 under setting [1] was 0.1 µM [falling, full curve, poor fit]. `CC(=O)Nc1ccc(Sc2ncnc3scc(-c4ccccc4)c23)cc1`: the AC50 under setting [1] is 20 µM [rising, single point]. With `CCN1C(=O)c2cccc3c(S(=O)(=O)Nc4nc(C)cs4)ccc1c23`, the AC50 under setting [2] was 31.6 µM [falling, single point] and the AC50 under setting [1] was 3.55 µM [rising, single point]. With `Cc1onc(-c2c(F)cccc2Cl)c1C(=O)OCC(=O)Nc1c(C)n(C)n(-c2ccccc2)c1=O`, the half-maximal activity concentration (AC50) under setting [1] is 31.6 µM [rising, single point].

As for `CC(C)N1C(=O)/C(=C\c2nc3ccccc3c(=O)[nH]2)c2ccccc21`, the AC50 is, setting by setting: under setting [2], 10 µM [rising, partial curve, poor fit]; under setting [1], 0.0355 µM [falling, full curve, poor fit]. As to `COc1cc(/C=C2\C(=O)NN(c3ccccc3)C2=O)ccc1OCC(N)=O`, the AC50 under setting [1] was 0.631 µM [falling, full curve, poor fit].

In the case of `COc1ccc(C(=O)Nc2ccc3nc(SCC(=O)N4CCCc5ccccc54)sc3c2)cc1`, the AC50 under setting [2] was 17.8 µM [falling, partial curve, poor fit] and the AC50 under setting [1] is 0.0224 µM [falling, full curve, poor fit]. In the case of `C=CCc1c(C)nc(-c2ccccc2)nc1N/N=C/c1ccncc1`, the AC50 under setting [2] was 5.01 µM [falling, single point]. With `Cc1nn(C(=O)c2cccc([N+](=O)[O-])c2)c(C)c1Sc1ccccc1`, the half-maximal activity concentration (AC50) runs as follows: under setting [2], 0.891 µM [rising, partial curve, poor fit]; under setting [1], 4.47 µM [rising, full curve]. For the molecule `Cc1cc(C)cc(N2C(=O)N(CC(=O)c3ccc(Br)cc3)c3ccccc3S2(=O)=O)c1`, the AC50 under setting [2] was 0.1 µM [falling, full curve].

Consider `CCc1cc2c(=O)c(-c3nc4ccccc4n3C)c(C)oc2c(CN2CCOCC2)c1O`, for which the AC50 under setting [1] was 12.6 µM [rising, partial curve].

On to `Cc1cc(C)nc(SCc2nnc(SCC#N)n2-c2cccc(Cl)c2)n1`, for which the half-maximal activity concentration (AC50) runs as follows: under setting [2], 10 µM [rising, partial curve, poor fit]; under setting [1], 8.91 µM [rising, partial curve]. For `COc1cccc(C(=O)C2CCCN(C(=O)c3ccc(C#CC(C)(C)O)cc3)C2)c1` (configuration not stated), under setting [1], the concentration at half-maximal activity (AC50) is 12.6 µM [falling, partial curve, poor fit]. For the molecule `CS(=O)(=O)Nc1ccc(C2=NN(C(=O)C3CCCCC3)C(c3cccs3)C2)cc1` (configuration not stated), the concentration at half-maximal activity (AC50) under setting [1] is 14.1 µM [rising, single point]. Consider `Cc1ccc(CCCOC(=O)C[N+]2(C)CCCCC2)cc1`, for which, under setting [1], the AC50 is 0.316 µM [falling, full curve, poor fit].

Regarding `CN(C)c1cccc(C(=O)OCC(=O)N2CCc3ccccc3C2)c1`, under setting [2], the AC50 is 0.01 µM [rising, full curve, poor fit]. In the case of `COc1cc(NS(C)(=O)=O)ccc1Nc1c2ccccc2nc2ccccc12`, the AC50 reads like this: under setting [2], 5.62 µM [falling, partial curve]; under setting [1], 35.5 µM [falling, partial curve, poor fit]. With `O=c1[nH]c(=S)[nH]c2c1C(c1cc([N+](=O)[O-])c(N3CCOCC3)cc1N1CCOCC1)O2` (configuration not stated), the half-maximal activity concentration (AC50) under setting [2] is 15.8 µM [falling, partial curve, poor fit]. Consider `Fc1cccc(COc2ccccc2C(=S)N2CCCC2)c1`, for which, under setting [1], the AC50 is 4.47 µM [rising, single point]. In the case of `COc1cc(/C=N/NC(=O)COc2cc(C)cc(C)c2)ccc1OS(=O)(=O)c1ccc(C)cc1`, the AC50 under setting [1] was 7.94 µM [rising, partial curve]. Take `CCc1ccc(-n2nc(C)c3c(C(=O)Nc4cc(OC)cc(OC)c4)cc(C)nc32)cc1`: under setting [1], the concentration at half-maximal activity (AC50) was 0.00316 µM [falling, full curve, poor fit]. For `COCCNC(=S)N/N=C(\C)c1ccccc1O`, the half-maximal activity concentration (AC50) is, setting by setting: under setting [2], 20 µM [rising, partial curve, poor fit]; under setting [1], 14.1 µM [rising, single point]. Turning to `Cc1nn(-c2ccccc2)c(Cl)c1C(=O)OC(C)C(=O)Nc1ccc2c(c1)OCO2` (configuration not stated), the half-maximal activity concentration (AC50) was 11.2 µM [rising, single point] under setting [2] and 25.1 µM [rising, single point] under setting [1].

Turning to `Cc1cc(C(=O)Nn2c(-c3ccc(Br)cc3)nc3ccccc3c2=O)ccc1[N+](=O)[O-]`, under setting [1], the half-maximal activity concentration (AC50) was 25.1 µM [rising, partial curve].

For `O=C(CSC1=Nc2ccccc2C2=NC(Cc3ccccc3)C(=O)N12)Nc1ccccc1F` (configuration not stated), the half-maximal activity concentration (AC50) under setting [2] is 2.51 µM [rising, partial curve, poor fit] and the AC50 under setting [1] is 3.16 µM [rising, full curve, poor fit]. In the case of `COc1ccc(C(=O)N(Cc2ccccc2)Cc2cc3cc4c(cc3[nH]c2=O)OCCO4)cc1`, the AC50 under setting [1] is 2.51 µM [falling, full curve, poor fit]. In the case of `CN(C(=O)CSc1nc(C2CC2)nc2ccccc12)c1nc(-c2ccccc2)cs1`, the half-maximal activity concentration (AC50) under setting [2] was 5.62 µM [rising, single point]. Regarding `Cn1c(=O)[nH]c(=O)c2c1nc(N1CCCC1)n2CCCSc1nc2ccccc2o1`, the half-maximal activity concentration (AC50) under setting [1] is 12.6 µM [rising, partial curve]. For `CC(C)(C)OC(=O)N1CCC[C@H]1c1nnc(SC/C=C/c2ccccc2)o1`, the AC50 under setting [1] was 10 µM [rising, partial curve, poor fit]. In the case of `N#Cc1nc(Cc2cccc3ccccc23)oc1NCCCn1ccnc1`, the AC50 under setting [1] is 2.82 µM [rising, single point]. For `Cc1ccccc1S(=O)(=O)/N=C(/c1ccccc1)N1CCOCC1`, the AC50 is 0.398 µM [falling, single point] under setting [2] and 0.355 µM [falling, single point] under setting [1].

The term AC50 denotes the concentration giving half of the maximal activity seen.
